Measured values published in PubChem BioAssay AID651640 (Broad Institute, 2012).
Among all 350,000 compounds or so, about 6,000 (1.7%) were called active. Inconclusive results, whose numbers are uncertain, are shown with a selection of clear calls. Cut-off read from the data, not from the text of the source: active = CPE inhibition above about 20% (passing the limit was not always enough); inconclusive = no clear call, values can overlap the other calls; tested in BHK-21 cells.

Assay: protection of cells from dengue 2 killing – plate reader, single concentration, primary screen (AID 651640);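 note: 0% = median of neutral control wells and 100% = median of positive control wells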
Settings: DENV2-infected cells, cytopathic effect rescue, at 9.99 µM, stronger effect = higher value
For `O=C1C=C(c2ccc(CO)cc2)C[C@@H](c2ccc3c(c2)OCO3)C1`, the CPE inhibition was inconclusive: 42.2%. In the case of `COc1cccc(CN2CC3(CN(C)C3)c3c([nH]c4cc(OC)ccc34)[C@H]2CO)c1`, the CPE inhibition is reported as inactive: 0.182%. With `COc1ccc(S(=O)(=O)Nc2c(C)nn(C)c2C)cc1Br` the CPE inhibition was active: 30.8%. In the case of `Cc1nc2cc(NC(=O)Nc3cccc([N+](=O)[O-])c3)ccc2n1C`, the CPE inhibition is reported as active: 34.5%. For `COCC#Cc1ccc2c(c1)O[C@@H](CN(C)Cc1ccncc1)[C@H](C)CN([C@H](C)CO)S2(=O)=O`, the CPE inhibition was active: 20.3%. For `CCN1[C@@H]2c3ccc(-c4ccc(F)cc4)c(=O)n3C[C@@H]2[C@@H](CO)[C@@H]1C(=O)NC1CCC1`, the CPE inhibition was inactive: 2.94%. With `O=C(c1cccc(F)c1)N1C[C@@H]2[C@H](c3ccccc31)[C@H](CO)N2C(=O)C1CC1` the CPE inhibition was active: 31.6%. In the case of `CC(=O)NC(c1ccc(F)c(F)c1)c1nc(-c2ccncc2)cs1` (configuration not stated), the CPE inhibition is reported as inconclusive: 46.4%. In the case of `CCOc1cc(CNCCN2CCOCC2)ccc1OCc1ccccc1Cl`, the CPE inhibition is reported as active: 28.9%. With `CCN(CC)S(=O)(=O)c1ccc(OCC(=O)NC(=O)c2ccccc2OC)c([N+](=O)[O-])c1` the CPE inhibition was inconclusive: 41.9%. In the case of `O=C(C[C@@H]1C[C@@H]2c3cc(NC(=O)c4cccnc4)ccc3O[C@@H]2[C@H](CO)O1)NCc1ccncc1`, the CPE inhibition is reported as inactive: -0.365%. With `Cc1cc(Cl)ccc1OCC(=O)NNC(=O)CCOc1ccccc1` the CPE inhibition was inconclusive: 48.3%. In the case of `COc1ccc(NC(=O)N2CCCc3cc(C)ccc32)c(OC)c1`, the CPE inhibition is reported as inconclusive: 24.9%. For `N#Cc1ccc(NC(=O)COC(=O)c2cccnc2Cl)cc1`, the CPE inhibition was inconclusive: 63.8%. With `O=C(CN1C(=O)CSc2ncccc21)NCCN1CCOCC1` the CPE inhibition was inconclusive: 54.2%. With `O=C(C[C@@H]1CC[C@H]2[C@@H](COC[C@H](O)CN2C(=O)c2ccncc2)O1)NC1Cc2ccccc2C1` the CPE inhibition was active: 30%. For `COc1ccc(OC)c(NC(=O)CNC(=O)Cn2cnc3sc(C)cc3c2=O)c1`, the CPE inhibition was inconclusive: 38.5%. In the case of `c1ccc2c(C[C@@H]3CNCCN3CCCCC3CCCCC3)cccc2c1`, the CPE inhibition is reported as active: 23.8%. In the case of `CN(C(=O)C1CCCN1S(=O)(=O)c1ccc(Cl)cc1)c1ccccc1` (configuration not stated), the CPE inhibition is reported as inconclusive: 47.7%. In the case of `CCNC(=O)N1CCCC(C(=O)c2ccc(C(F)(F)F)cc2)C1` (configuration not stated), the CPE inhibition is reported as inconclusive: 21.9%. With `CN1c2ccc(Br)cc2[C@H]2[C@H](CCN2S(=O)(=O)c2ccccc2F)[C@@H]1CO` the CPE inhibition was active: 40.5%. For `CC(C)C#Cc1ccc([C@@H]2[C@@H](CO)N3C(=O)CN(C(=O)NC4CCCCC4)C[C@@H]23)cc1`, the CPE inhibition was inconclusive: 35.7%. For `CC(C)NC(=O)N1CCCCN2[C@H](CO)[C@@H](c3ccc(C#CC4CC4)cc3)[C@H]2C1`, the CPE inhibition was active: 38.8%. In the case of `CC(NC(=O)CN1C(=O)NC(C)(c2cccc3ccccc23)C1=O)c1ccccc1` (configuration not stated), the CPE inhibition is reported as inconclusive: 30.3%. For `COc1ccccc1OCCNC(=O)Nc1cc(F)c(F)cc1Cl`, the CPE inhibition was inconclusive: 54%. In the case of `CCCCCCn1c(CN2CCN(C(=O)c3ccco3)CC2)nc2c1c(=O)n(C)c(=O)n2C`, the CPE inhibition is reported as inconclusive: 60.7%. With `OC(c1ccc(-c2ccccc2)cc1)c1ncc(-c2ccc(F)cc2)[nH]1` (configuration not stated) the CPE inhibition was inconclusive: 25.9%. In the case of `COc1ccc(CN(C)C[C@@H]2OCCCC[C@@H](C)Oc3ccc(NS(=O)(=O)c4cccs4)cc3C(=O)N([C@@H](C)CO)C[C@H]2C)cc1`, the CPE inhibition is reported as active: 26.7%. For `O=C(Cc1ccncc1)NCC[C@@H]1CC[C@@H](NC(=O)C2CCOCC2)[C@H](CO)O1`, the CPE inhibition was inconclusive: 27.6%. In the case of `O=C(c1ccc2c(c1)OCO2)N1CCC2(CC1)Oc1ccc(Cl)cc1C(=O)C21CC(c2ccc(Cl)cc2)=NO1` (configuration not stated), the CPE inhibition is reported as inconclusive: 55.5%. In the case of `O=C1/C(=C\c2ccc(Cl)cc2)CCC1CNc1ccc(Cl)cc1` (configuration not stated), the CPE inhibition is reported as active: 62.5%. For `CC(=O)N(C)C[C@@H]1Oc2ncc(-c3ccc(C)cc3)cc2C(=O)N([C@@H](C)CO)C[C@H]1C`, the CPE inhibition was inconclusive: 26.6%. With `Cc1ccc(S(=O)(=O)N2CC[C@@H]3[C@H](CO)Nc4ccc(-c5ccccc5F)cc4[C@@H]32)cc1` the CPE inhibition was active: 147%. For `O=C(O)CN1C(=O)/C(=C\c2cc(Br)ccc2OCc2ccc(Cl)cc2)SC1=S`, the CPE inhibition was inconclusive: 21.1%. In the case of `Cc1ccc(S(=O)(=O)Nc2cccc3c2O[C@H](CN(C)S(=O)(=O)c2ccc(C)cc2)[C@@H](C)CN([C@@H](C)CO)C3=O)cc1`, the CPE inhibition is reported as inconclusive: 58.1%. In the case of `C[C@@H]1CN([C@@H](C)CO)C(=O)c2cc(C#CC3CCCC3)cnc2O[C@H]1CN(C)C(=O)C1CC1`, the CPE inhibition is reported as active: 27.5%. For `O=C(NCc1ccccc1)c1cnc(Cc2c[nH]c3ccccc23)c(I)c1`, the CPE inhibition was inconclusive: 20.1%. For `CCc1nccn1CCC(=O)N1CCCC(N2CCN(c3ccccc3C)CC2)C1` (configuration not stated), the CPE inhibition was inconclusive: 20.5%. With `CCC(=O)N(C)C[C@@H]1Oc2cc(-c3ccccc3)ccc2S(=O)(=O)N([C@H](C)CO)C[C@@H]1C` the CPE inhibition was inactive: -9.59%. For `Cc1ccc(NC(=O)COC(=O)C2C3CC4OC(=O)C2C4C3)cc1Cl` (configuration not stated), the CPE inhibition was inconclusive: 22.9%. For `C[C@@H]1CCCCO[C@@H](CN(C)S(C)(=O)=O)[C@H](C)CN([C@@H](C)CO)C(=O)c2cc(NC(=O)Nc3ccc(C(F)(F)F)cc3)ccc2O1`, the CPE inhibition was active: 56.6%. For `C[C@@H]1CN([C@@H](C)CO)S(=O)(=O)c2ccc(-c3ccncc3)cc2O[C@H]1CN(C)C(=O)Nc1ccc(C(F)(F)F)cc1`, the CPE inhibition was inconclusive: 21.1%. For `COc1ccccc1N1CCN(S(=O)(=O)c2ccc([N+](=O)[O-])cc2)CC1`, the CPE inhibition was inconclusive: 68.6%. In the case of `C[C@H]1CCCCO[C@@H](CN(C)C(=O)Nc2ccc(C(F)(F)F)cc2)[C@@H](C)CN([C@@H](C)CO)C(=O)c2cc(NC(=O)Nc3ccc(F)cc3)ccc2O1`, the CPE inhibition is reported as inactive: -0.803%. In the case of `Brc1cnc2nc(SCc3nc4ccccc4[nH]3)[nH]c2c1`, the CPE inhibition is reported as inconclusive: 25%. In the case of `Cc1noc(C)c1NC(=O)N[C@@H]1CC[C@H](CC(=O)N2CCCCC2)O[C@@H]1CO`, the CPE inhibition is reported as inconclusive: 26.4%. With `CN(C)C(=O)c1ccc(-c2ccc3c(c2)[C@@H]2[C@@H](CCN2C(=O)C2CCCC2)[C@@H](CO)N3C)cc1` the CPE inhibition was active: 65%.
